Measurements published in patent US20250177354A1, “THERAPEUTIC COMBINATIONS, COMPOSITIONS, AND METHODS FOR DESIGNING AND PRODUCING EN[…]” (Mindstate Design Labs, Inc., priority 2022, published 2025).

Test system: individual
Assay: Self-administration of combinations and single-compound controls, subjective reports recorded by the individual
Assay type: in vivo, human
Protocol: In several examples of such administration, the combinations as follows were self-administered, with the subjective reports recorded by the individual during and/or following such administration, as below.
The following example was performed for purposes of and is presented as a control.
In an example, the combination as set forth below was self-administered, with the report as follows.
The working example below was performed for purposes of and is presented as a control.
The working examples below were also performed for purposes of and are presented as controls, using an escalating dose of a single primer alone, applicable to this and other Examples.

For C1COC(NC(C2CC2)C2CC2)=N1 [Rilmenidine, N-(dicyclopropylmethyl)-4,5-dihydro-1,3-oxazol-2-amine], the “time until effect was felt” value (control: 1.0 mg Rilmenidine alone, 9:00 pm) was “half an hour”.
For COc1nc(C)nc(Cl)c1NC1=NCCN1 [Moxonidine, 4-Chloro-N-(4,5-dihydro-1H-imidazol-2-yl)-6-methoxy-2-methylpyrimidin-5-amine], the “time until effect was felt” value (control: 0.2 mg Moxonidine alone, 12:30 pm) was “about one hour”.
For COc1ccc2[nH]cc(CCN(C)C(C)C)c2c1 [Example 5-MeO-MiPT, N-isopropyl-5-methoxy-N-methyltryptamine], the “time until the drug came on” value (control: 10.0 mg 5-MeO-MiPT alone) was 30 min.
